{
  "source": "PubChem BioAssay AID445",
  "about": "(National Center for Advancing Translational Sciences (NCATS), 2006)",
  "note": "Some of the results follow. These are further read-outs of the screen, such as a control signal, another cell line or another target. No call is given for them. Most of these compounds were active or inconclusive in the main read-out, so they are no random draw. Potencies come from curve fits of mixed quality, noted in brackets.",
  "data": [
    {"test": "IkB Signaling", "details": "ABC-DLBCL IkBa-CBG/CBR dual luciferase ratio (green luciferase fused to IkBa over red control in OCI-Ly3 lymphoma cells), 4 h; measured here: control luc red channel unless noted", "summary_of_the_method": "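Luminescence ratio of IκBα-fused green versus native red beetle luciferase in OCI-Ly3 cells, 4 h post-doxycycline with compound; red signal alone, scaled from basal (0%) to zero light (-100%), flagged nonspecific or cytotoxic effects.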", "values": [
      {"smiles": "Cc1cccc(N2CCN(CC(=O)NCC3CCCCC3)CC2)c1C", "AC50": "25.1 µM [falling, partial curve]"},
      {"smiles": "CC(C)c1cnc2c(c1SCc1ccc([N+](=O)[O-])cc1)c(=O)n(C)c(=O)n2C", "AC50": "25.1 µM [falling, partial curve]"},
      {"smiles": "CN(CCCNC(=O)c1cc2c(Cl)nc3ccccc3c2s1)Cc1ccccc1", "AC50": "25.1 µM [falling, single point]"},
      {"smiles": "COC(=O)c1c(NC(=O)c2cc3ccccc3c(=O)o2)sc2c1CCCC2", "AC50": "10 µM [falling, partial curve]"},
      {"smiles": "CC(=O)c1cccc(NC(=O)C(C)n2c(=O)cc(C)c3c(C)nn(-c4ccccc4)c32)c1", "note": "(stereo not given)", "AC50": "0.794 µM [rising, partial curve]"},
      {"smiles": "COc1ccc(CCNC(=O)c2ccc(Nc3nc4ccccc4n4nnnc34)cc2)cc1OC", "AC50": "3.16 µM [falling, partial curve]"},
      {"smiles": "Cc1cccc(N(CC(O)Cn2c3ccccc3c3ccccc32)S(=O)(=O)c2ccc(F)cc2)c1", "note": "(stereo not given)", "AC50": "7.94 µM [falling, partial curve]"},
      {"smiles": "O=C1CC(c2ccco2)CC(O)=C1C=NCC1NCCc2ccccc21", "note": "(stereo not given)", "AC50": "20 µM [rising, partial curve] [measured here: IkB-luc green channel]"},
      {"smiles": "CCOC(=O)N1CCN(C(=O)CCCn2nc(C)c3sc4ccccc4c3c2=O)CC1", "AC50": "7.94 µM [falling, partial curve]"},
      {"smiles": "Cc1ccc2onc(CC(=O)N3CCN(c4ccc(F)cc4)CC3)c2c1", "AC50": "25.1 µM [falling, partial curve]"},
      {"smiles": "CCOC(=O)c1[nH]c2c(c1Cc1ccccc1C)C(=O)CC(c1cc(OC)ccc1OC)C2", "note": "(stereo not given)", "AC50": "6.31 µM [falling, full curve]"},
      {"smiles": "Cc1ccc(-c2nc(CS(=O)(=O)CC(=O)N3CCc4ccccc4C3)c(C)o2)cc1", "AC50": "15.8 µM [falling, partial curve]"},
      {"smiles": "O=C(COc1ccccc1)NCCc1csc(-c2ccc(Cl)cc2)n1", "AC50": "3.16 µM [falling, single point]"},
      {"smiles": "O=C(CSc1nc2scc(-c3ccco3)c2c(=O)n1-c1ccccc1)N1CCOCC1", "AC50": "6.31 µM [rising, full curve] [measured here: IkB-luc green channel]"},
      {"smiles": "CCc1nn2c(=O)cc(COc3ccc(/C=C(\\C#N)C(=O)Nc4ccc(F)cc4)cc3OC)nc2s1", "AC50": "5.01 µM [rising, partial curve]"},
      {"smiles": "CCCCOc1ccc(S(=O)(=O)NCc2csc(C)n2)cc1", "AC50": "10 µM [falling, partial curve]"},
      {"smiles": "Cc1cccc(N2C(N)=C(C#N)C(C#N)(C#N)C2c2ccccc2)c1", "note": "(stereo not given)", "AC50": "39.8 µM [falling, single point]"},
      {"smiles": "CCOC(=O)c1ccc(NC(=O)C2CCN(S(=O)(=O)c3ccc4c(c3)CCCC(=O)N4)CC2)cc1", "AC50": "20 µM [falling, single point]"},
      {"smiles": "Cc1ccccc1-c1nn2c(=O)cc(CN3CCN(C(=O)/C=C/c4ccccc4)CC3)nc2s1", "AC50": "20 µM [falling, single point]"},
      {"smiles": "CCc1ccc(NC(=O)Cn2c(=O)n(CCC(=O)N3CCc4ccccc4C3)c(=O)c3ccccc32)cc1", "AC50": "39.8 µM [falling, single point]"},
      {"smiles": "Cc1cc(C)cc(NC(=O)N2CCC3(CC2)Oc2ccccc2C(=O)N3Cc2ccccc2F)c1", "AC50": "20 µM [falling, partial curve, poor fit]"},
      {"smiles": "COc1ccc(Br)c(C(=O)Nc2cc3c(cc2N2CCOCC2)n(C)c(=O)n3C)c1", "AC50": "0.0126 µM [rising, full curve, poor fit]"},
      {"smiles": "CCOc1ccc(NC(=O)c2c(NCc3cccnc3)sc3c2CCCC3)cc1", "AC50": "39.8 µM [falling, single point]"},
      {"smiles": "CCOC(=O)c1ccc(CN(Cc2ccc(F)cc2)S(=O)(=O)c2ccc(F)c(C(=O)Nc3ccc(Cl)cc3F)c2)cc1", "AC50": "12.6 µM [falling, partial curve]"},
      {"smiles": "COc1cccc(N2CCN(C(=O)c3cccc(-n4c(C)nc5cccnc54)c3)CC2)c1", "AC50": "25.1 µM [falling, single point]"},
      {"smiles": "O=C(O)CCCC(=O)Nc1ccc(Br)cc1C(=O)O", "AC50": "6.31 µM [falling, partial curve]"},
      {"smiles": "COc1ccc(CCn2c(=O)c3cccnc3n(CC(=O)Nc3ccc(C)c(F)c3)c2=O)cc1OC", "AC50": "15.8 µM [falling, partial curve]"},
      {"smiles": "CC1(C)CC2CC(C)(CN2CC(=O)C(C#N)c2ccccc2)C1", "note": "(stereo not given)", "AC50": "7.94 µM [falling, single point]"},
      {"smiles": "Cc1sc2c(c1C)c(=O)n(-c1ccc(Cl)cc1)c(=O)n2Cc1cc(=O)n2ccccc2n1", "AC50": "6.31 µM [falling, full curve, poor fit]"},
      {"smiles": "Cc1ccc2nc(N3CCC(C(=O)N4CCN(c5cccc(C)c5C)CC4)CC3)[nH]c2c1", "AC50": "39.8 µM [falling, single point]"},
      {"smiles": "FC(F)(F)c1cccc(-c2nc3nc(Cl)c(Cl)nc3[nH]2)c1", "AC50": "0.501 µM [falling, full curve]"},
      {"smiles": "COc1ccc(C2C(C(N)=O)=C(C)Nc3nc(SCc4ccccc4Cl)nn32)cc1OC", "note": "(stereo not given)", "AC50": "25.1 µM [falling, single point]"},
      {"smiles": "Cc1ccc(CNC(=O)c2nc(SCc3ccccc3F)ncc2Cl)cc1", "AC50": "6.31 µM [falling, full curve, poor fit]"},
      {"smiles": "CCOC(=O)c1ccc(N2C(=O)c3n[nH]c(C)c3C2c2cccc(Br)c2)cc1", "note": "(stereo not given)", "AC50": "20 µM [falling, single point]"},
      {"smiles": "COc1ccc(CNC(=O)Cn2nnc(-c3ccc(C(F)(F)F)cc3)n2)cc1", "AC50": "0.0126 µM [falling, full curve, poor fit]"},
      {"smiles": "CC1CCN(S(=O)(=O)c2ccc3c(c2)oc(=O)n3CC(=O)NCc2ccc3c(c2)OCO3)CC1", "AC50": "15.8 µM [falling, partial curve]"},
      {"smiles": "O=c1cc(-c2ccccc2)n2c(SCc3ccc(Cl)cc3)nnc2[nH]1", "AC50": "39.8 µM [falling, single point]"},
      {"smiles": "CCc1nc2ccccc2n1Cc1ccc(OC)c(OC)c1", "AC50": "5.01 µM [rising, partial curve]"},
      {"smiles": "O=C(c1ccc(CSCc2ccccc2F)o1)N1CCN(c2ccc(N3CCOCC3)nn2)CC1", "AC50": "6.31 µM [falling, partial curve]"},
      {"smiles": "COc1ccc2ccccc2c1/C=C\\C(=O)c1ccccc1", "AC50": "7.94 µM [rising, single point] [measured here: IkB-luc green channel]"},
      {"smiles": "COCCNc1ncnc2c1c(-c1ccccc1)cn2-c1ccc(C)c(Cl)c1", "AC50": "25.1 µM [falling, single point]"},
      {"smiles": "O=C(NCc1ccco1)c1ccc2c(c1)N(Cc1ccccc1)C(=O)c1ccccc1S2(=O)=O", "AC50": "7.94 µM [falling, full curve, poor fit]"},
      {"smiles": "Cc1ccc(CNC(=O)c2oc3c(c2C)-c2nn(Cc4ccc(Cl)cc4)cc2CC3)cc1", "AC50": "12.6 µM [falling, partial curve]"},
      {"smiles": "Cc1cc(S(=O)(=O)C(CNC(=O)c2ccc(OC(C)C)cc2)c2cccs2)ccc1F", "note": "(stereo not given)", "AC50": "31.6 µM [falling, single point]"},
      {"smiles": "CC1CCCN(S(=O)(=O)c2ccc(NC(=O)c3cccc(-n4cnnn4)c3)cc2)C1", "note": "(stereo not given)", "AC50": "39.8 µM [falling, single point]"},
      {"smiles": "COc1ccc(N2CCN(Cc3nc4c(c(=O)[nH]c(=O)n4C)n3Cc3ccc(Cl)cc3)CC2)cc1", "AC50": "31.6 µM [falling, single point]"},
      {"smiles": "COc1ccc(CCNC(=O)c2c(O)c3cccc4c3n(c2=O)CC4)cc1", "AC50": "25.1 µM [falling, partial curve]"},
      {"smiles": "Cc1cccc(-c2nnc(SCc3cc(=O)c4cccc(Cl)c4[nH]3)n2C)c1", "AC50": "39.8 µM [falling, single point]"},
      {"smiles": "COc1cccc2c1ncc1c(-c3ccc(C)cc3)nn(-c3cccc([N+](=O)[O-])c3)c12", "AC50": "31.6 µM [rising, partial curve]"},
      {"smiles": "COc1ccc(NC(=O)N(CCC(C)C)C(C)c2cccs2)c(OC)c1", "note": "(stereo not given)", "AC50": "20 µM [falling, partial curve]"},
      {"smiles": "Cc1ccc(C2CCN(C(=O)c3cnn(-c4cccc(Cl)c4)c3C3CCN(C(=O)OC(C)(C)C)CC3)C2)cc1", "note": "(stereo not given)", "AC50": "15.8 µM [falling, partial curve]"},
      {"smiles": "Cc1cc(=O)[nH]c2nnc(SCC(=O)Nc3ccc(OC(F)(F)F)cc3)n12", "AC50": "3.98 µM [rising, partial curve]"},
      {"smiles": "COc1ccc(OC)c(NC(=O)c2cc(-c3ccc(Cl)s3)nc3ccccc23)c1", "AC50": "2.51 µM [falling, full curve]"},
      {"smiles": "COc1ccc(OC)c(S(=O)(=O)N2CCC(C(=O)Nc3cccc(C(F)(F)F)c3)CC2)c1", "AC50": "15.8 µM [falling, partial curve]"},
      {"smiles": "COC(=O)CN1C(=O)C2(C(C#N)=C(N)Oc3c2c(C)nn3-c2ccccc2)c2ccccc21", "note": "(stereo not given)", "AC50": "12.6 µM [falling, partial curve]"},
      {"smiles": "COc1ccccc1CNC(=O)C(Cc1ccccc1)NS(=O)(=O)c1ccc2c(c1)oc(=O)n2C", "note": "(stereo not given)", "AC50": "25.1 µM [falling, partial curve]"},
      {"smiles": "c1ccc(-c2nc(N3CCCCCC3)c3ccccc3n2)nc1", "AC50": "31.6 µM [falling, partial curve]"},
      {"smiles": "O=C1CC(c2nc3ccccc3n2CCCCOc2ccccc2)CN1c1ccccc1Cl", "note": "(stereo not given)", "AC50": "15.8 µM [falling, partial curve]"},
      {"smiles": "CCc1nnc(NC(=O)CSc2nc3c([nH]c4ccccc43)c(=O)n2-c2cc(C)cc(C)c2)s1", "AC50": "39.8 µM [falling, single point]"},
      {"smiles": "CC(=O)[C@@H]1[C@@H]2C(=O)N(c3ccc(F)c(Cl)c3)C(=O)[C@@H]2C2c3ccccc3C=CN21", "note": "(stereo not given in full)", "AC50": "1.26 µM [falling, partial curve]"}
    ]}
  ]
}
